According to paper PMC4546166:
These are yes or no findings as the source states them, for the method shown. Binding seen in cells or lysates may run through a third protein. Some entries that bind do so weakly or less than the wild type.

The chains behind the UniProt entries cited, without tags or fusion partners.
UniProt Q9ESD7: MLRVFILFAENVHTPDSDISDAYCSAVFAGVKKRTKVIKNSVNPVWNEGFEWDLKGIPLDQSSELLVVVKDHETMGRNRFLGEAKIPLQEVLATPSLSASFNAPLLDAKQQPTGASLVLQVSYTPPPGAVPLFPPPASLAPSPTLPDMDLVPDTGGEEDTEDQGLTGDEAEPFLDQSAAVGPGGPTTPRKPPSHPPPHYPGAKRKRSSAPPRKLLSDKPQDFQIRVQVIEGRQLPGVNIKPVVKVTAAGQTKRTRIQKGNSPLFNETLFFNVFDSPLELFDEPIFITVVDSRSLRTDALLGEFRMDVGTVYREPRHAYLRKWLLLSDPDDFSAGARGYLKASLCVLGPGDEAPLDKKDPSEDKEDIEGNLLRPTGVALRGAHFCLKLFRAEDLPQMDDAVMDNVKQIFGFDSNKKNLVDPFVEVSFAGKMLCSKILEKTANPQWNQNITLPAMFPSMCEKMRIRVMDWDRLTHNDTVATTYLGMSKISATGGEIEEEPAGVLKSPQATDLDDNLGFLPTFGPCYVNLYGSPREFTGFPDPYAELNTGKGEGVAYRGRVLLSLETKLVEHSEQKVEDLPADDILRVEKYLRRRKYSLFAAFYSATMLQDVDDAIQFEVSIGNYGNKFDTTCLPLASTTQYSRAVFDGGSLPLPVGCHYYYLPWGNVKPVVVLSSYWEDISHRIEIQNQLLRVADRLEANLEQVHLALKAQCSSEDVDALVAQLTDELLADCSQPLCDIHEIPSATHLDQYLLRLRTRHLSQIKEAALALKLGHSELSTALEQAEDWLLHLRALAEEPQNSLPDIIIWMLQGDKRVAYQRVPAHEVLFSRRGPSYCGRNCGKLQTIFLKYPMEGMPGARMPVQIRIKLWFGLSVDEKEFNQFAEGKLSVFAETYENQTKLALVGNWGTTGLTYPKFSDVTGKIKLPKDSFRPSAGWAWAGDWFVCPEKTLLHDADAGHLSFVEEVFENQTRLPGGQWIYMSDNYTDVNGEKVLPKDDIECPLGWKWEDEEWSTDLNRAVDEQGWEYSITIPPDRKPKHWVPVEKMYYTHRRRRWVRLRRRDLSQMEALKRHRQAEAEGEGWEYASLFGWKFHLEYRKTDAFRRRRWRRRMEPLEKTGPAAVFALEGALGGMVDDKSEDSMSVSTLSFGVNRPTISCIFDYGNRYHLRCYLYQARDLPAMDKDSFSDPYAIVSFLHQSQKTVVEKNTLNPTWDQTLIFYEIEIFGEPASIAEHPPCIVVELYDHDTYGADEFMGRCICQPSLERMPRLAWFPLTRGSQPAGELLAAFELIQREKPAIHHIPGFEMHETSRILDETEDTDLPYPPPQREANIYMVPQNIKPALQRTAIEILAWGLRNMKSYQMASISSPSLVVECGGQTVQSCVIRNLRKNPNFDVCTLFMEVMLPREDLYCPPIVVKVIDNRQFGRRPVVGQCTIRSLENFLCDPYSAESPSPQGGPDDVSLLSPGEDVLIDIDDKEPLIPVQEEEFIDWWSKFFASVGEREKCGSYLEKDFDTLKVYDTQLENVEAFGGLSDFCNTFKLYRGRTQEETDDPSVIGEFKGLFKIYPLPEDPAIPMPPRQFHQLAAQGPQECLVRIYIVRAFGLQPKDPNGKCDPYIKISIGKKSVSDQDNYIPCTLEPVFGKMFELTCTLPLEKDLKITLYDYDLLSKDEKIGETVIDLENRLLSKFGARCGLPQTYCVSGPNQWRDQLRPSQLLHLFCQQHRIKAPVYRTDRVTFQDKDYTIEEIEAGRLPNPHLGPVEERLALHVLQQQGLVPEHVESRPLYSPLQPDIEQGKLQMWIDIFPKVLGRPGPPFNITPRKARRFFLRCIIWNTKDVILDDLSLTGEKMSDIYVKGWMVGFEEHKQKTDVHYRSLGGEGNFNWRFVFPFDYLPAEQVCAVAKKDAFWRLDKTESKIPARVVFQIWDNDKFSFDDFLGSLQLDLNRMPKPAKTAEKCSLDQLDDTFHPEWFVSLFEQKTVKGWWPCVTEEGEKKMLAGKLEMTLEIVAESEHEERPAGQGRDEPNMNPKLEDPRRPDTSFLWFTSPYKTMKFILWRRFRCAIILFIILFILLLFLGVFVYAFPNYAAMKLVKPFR

Biological target: T1, GTPase regulator associated with focal adhesion kinase-1 (GRAF1) (mouse (endogenous in quadriceps muscle)) (UniProt Q6ZQ82)
T1 sequence: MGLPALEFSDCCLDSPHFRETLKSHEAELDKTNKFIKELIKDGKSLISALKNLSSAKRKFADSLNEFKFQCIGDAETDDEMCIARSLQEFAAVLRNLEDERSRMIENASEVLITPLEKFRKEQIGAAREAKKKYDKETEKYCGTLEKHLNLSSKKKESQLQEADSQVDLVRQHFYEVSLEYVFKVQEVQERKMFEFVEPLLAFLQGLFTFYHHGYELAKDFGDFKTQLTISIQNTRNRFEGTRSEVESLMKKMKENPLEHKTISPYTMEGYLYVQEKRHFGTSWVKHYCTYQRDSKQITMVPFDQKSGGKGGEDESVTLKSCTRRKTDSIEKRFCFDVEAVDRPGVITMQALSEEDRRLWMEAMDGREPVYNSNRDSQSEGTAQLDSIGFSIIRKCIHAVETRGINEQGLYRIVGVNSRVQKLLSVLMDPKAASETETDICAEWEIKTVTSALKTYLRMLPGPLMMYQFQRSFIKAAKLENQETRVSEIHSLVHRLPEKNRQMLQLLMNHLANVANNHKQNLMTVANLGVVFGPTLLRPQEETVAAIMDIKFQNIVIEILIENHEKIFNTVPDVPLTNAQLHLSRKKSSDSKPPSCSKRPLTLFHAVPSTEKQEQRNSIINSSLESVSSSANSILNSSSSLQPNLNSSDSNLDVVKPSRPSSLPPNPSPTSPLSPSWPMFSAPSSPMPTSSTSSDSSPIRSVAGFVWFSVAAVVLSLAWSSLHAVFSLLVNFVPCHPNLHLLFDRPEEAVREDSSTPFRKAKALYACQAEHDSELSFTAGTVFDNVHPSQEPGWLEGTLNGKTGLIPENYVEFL
Experiment: co-IP; anti-GRAF1 rabbit polyclonal antibody and Protein A Sepharose; 1000 ug cleared lysate of mouse quadriceps muscle 7 days after CTX-induced injury, in modified RIPA buffer (50 mM HEPES pH 7.2, 0.15 M NaCl, 2 mM EDTA, 0.1 % NP-40, 0.05 % deoxycholate, 0.5 % Triton X-100), overnight at 4 °C; blots probed with anti-dysferlin and anti-GRAF1

dysferlin (from UniProt Q9ESD7 1-2090)
binding: binds
